Source: PubChem BioAssay AID1259308 (NCATS, 2017)

Purpose: 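Candidate targets for better recombinant protein yield in mammalian cells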 (primary screen)
Cell system: human HEK293 embryonic kidney cells stably expressing firefly luciferase (HEK-CMV-Luc2-Hygro)
Reagent: single siRNA against human genes, 0.8 pmol siRNA per well
Duration: 72 h
Measured: 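Luciferase light (ONE-Glo) measured on one replicate plate set and viability (CellTiter-Glo) on the other, scaled to a negative control siRNA, with robust z-scores and luciferase per cell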
Reading the numbers: total luciferase, z-score and total luciferase, % of control: higher = more reporter protein produced; luciferase per cell, z-score: higher = more reporter output per viable cell; viable cells, % of control: higher = more viable cells
Hit rule: 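An siRNA counts as active if its total luciferase robust z-score exceeds 3; genes with two or more such siRNAs out of three were retested with fresh siRNAs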
Calls: active = raised luciferase; inactive = no rise
This is an unselected part of about 59,000 reagents tested. About 1,510 of all reagents (2.6%) count as active. 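Calls use total luciferase alone and ignore viability, so some active siRNAs may act by altering cell number.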 The numbers tell different reagents against one gene apart.

Target gene	reagent	total luciferase, z-score	total luciferase, % of control	luciferase per cell, z-score	viable cells, % of control	Outcome
ATAD3C	1	1.62	114	0.596	109	inactive
ATAD3C	2	-0.0527	80.8	-0.3	97.7	inactive
ATAD3C	3	-1.67	48.6	-2.14	95.5	inactive
CLN3	1	1.72	116	2.46	67.9	inactive
CLN3	2	-1.86	44.9	-2.45	95.6	inactive
CLN3	3	-0.314	75.6	-0.139	87.7	inactive
CEP120	1	-0.435	73.2	-0.537	94.3	inactive
CEP120	2	0.981	101	1.16	83.6	inactive
CEP120	3	1.95	121	1.59	88.7	inactive
ERICH6	1	0.178	85.4	-0.727	116	inactive
ERICH6	2	-0.903	63.9	-1.14	96.5	inactive
ERICH6	3	0.531	92.4	0.0525	102	inactive
LINC01530	1	1.69	115	1.41	89	inactive
LINC01530	2	3.85	159	3.07	79	active
LINC01530	3	1.22	106	0.853	94.7	inactive
TAX1BP3	1	-1.21	57.8	-0.682	77.3	inactive
TAX1BP3	2	-1.42	53.6	-0.847	74.8	inactive
TAX1BP3	3	0.267	87.2	0.45	86.6	inactive
DUSP13B	1	-0.17	78.5	0.118	85	inactive
DUSP13B	2	1.26	107	0.931	93.6	inactive
DUSP13B	3	-0.323	75.5	-0.424	94.3	inactive
RDH10	1	1.28	107	1.07	90.5	inactive
RDH10	2	1.02	102	2.26	63.1	inactive
RDH10	3	0.225	86.4	0.502	84.5	inactive
NSUN3	1	0.622	94.3	-0.205	111	inactive
NSUN3	2	-0.796	66.1	-1.18	101	inactive
NSUN3	3	0.983	101	0.6	96.8	inactive
BCL9L	1	-0.036	81.2	1.19	66.3	inactive
BCL9L	2	0.629	94.4	0.811	85.2	inactive
BCL9L	3	-2.17	38.8	-2	73.4	inactive
TMEM178A	1	0.0158	82.2	0.883	72.8	inactive
TMEM178A	2	0.69	95.6	0.534	92.8	inactive
TMEM178A	3	-0.544	71.1	-0.0932	81.4	inactive
CLEC17A	1	0.282	87.5	0.19	93	inactive
CLEC17A	2	0.15	84.9	-0.137	98.3	inactive
CLEC17A	3	1.19	106	1.29	83.9	inactive
LILRA1	1	0.0972	83.8	-0.37	103	inactive
LILRA1	2	-0.0288	81.3	-0.387	101	inactive
LILRA1	3	-0.224	77.4	-0.343	94.7	inactive
ANKRD20A3P	1	-0.193	78	0.144	84	inactive
ANKRD20A3P	2	1.73	116	0.953	101	inactive
ANKRD20A3P	3	0.257	87	-0.11	100	inactive
SNX20	1	-2.78	26.6	-1.43	43.4	inactive
SNX20	2	0.577	93.4	0.165	99.9	inactive
SNX20	3	-0.995	62.1	-0.0252	69.8	inactive
MESP2	1	0.252	86.9	0.329	89.1	inactive
MESP2	2	0.585	93.5	0.097	102	inactive
MESP2	3	-0.591	70.1	-0.754	95.6	inactive
NDC80	1	1.66	115	2.88	60.2	inactive
NDC80	2	0.677	95.3	0.942	83.1	inactive
NDC80	3	0.696	95.7	1.62	69.8	inactive
RAB5A	1	-0.113	79.6	0.722	73.6	inactive
RAB5A	2	1.01	102	0.499	99.9	inactive
RAB5A	3	1.1	104	0.905	91.3	inactive
OR4D11	1	1.21	106	0.314	109	inactive
OR4D11	2	0.0381	82.6	-0.472	105	inactive
OR4D11	3	1.18	105	2.4	62.5	inactive

Records above with an active call (1):
Target gene	reagent	total luciferase, z-score	total luciferase, % of control	luciferase per cell, z-score	viable cells, % of control	Outcome
LINC01530	2	3.85	159	3.07	79	active
